{"source": "patent US7705119B1", "about": "“Compositions and methods useful for treating circulatory and hypovolemic shock” (University of Kentucky Research Foundation, priority 2007, dated 2010)", "key": {"Sprague-Dawley rats [1]": {"system": "Sprague-Dawley rats", "assay": "Post hemorrhage Delt-E infusion, volume-controlled hemorrhagic shock model without fluid resuscitation", "assay_type": "in vivo, rat", "conditions": "for pulse pressure (mmHg systolic-mmHg diastolic): first 30 minutes after injection", "description": "A murine hemorrhagic shock model was used to evaluate the effects of administration of Deltorphin-E (Delt-E), without concomitant fluid resuscitation, on hemodynamic status, plasma lactate levels, and survival rates.\nThe hemorrhagic shock model used was a volume-controlled model similar to that of Summers et al. Acad Emerg Med. 10:587-93 (2003). Forty-six male Sprague-Dawley rats (about 341-411 grams) were acclimated to a laboratory environment for a week. In dwelling heparinized PE 10 catheters were placed in the femoral artery and the femoral vein of anesthetized rats. The two catheters were combined and exited suprascapularly, tied in place with braided silk, and covered with a piece of hypoallergenic mesh to prevent kinking. Rats were then placed in recovery cages for 24 hr, allowed access to food and water, and allowed unrestricted access to both catheters. The femoral artery catheter was used for volume-controlled hemorrhage and blood pressure measurements and the femoral vein catheter was used for Delt-E infusion. Each selected animal was randomly assigned 1 of […] post hemorrhage treat groups: 1 mL/100 g saline control (n=6), 2.85 mg/kg Delt-E (n=6), 4.2 mg/kg Delt-E (n=6), 5.5 mg/kg Delt-E (n=6), and 14 mg/kg Delt-E (n=6). Animals were also selected and randomly assigned to 1 of 4, 30-minute pre-treatment inhibitor groups: Naltriben Methane Sulfonate (NTB) (n=4), Naltrexone (n=4), Glibenclamide (n=4), and 7-Dehydrobenzylidine naltrexone (BNTX) (n=4) followed by a 5.5 mg/kg injection of Delt-E.\nTreatment: Twenty-four hours after catheter placement, test rats (n=24) were infused in the femoral vein with either 2.85, 4.2, 5.5 or 14 mg/kg of Delt-E (Tyr-D-Ala-Phe-Ala-Ile-Gly-Asp-Phe-Ser-Ile-NH2; SEQ ID NO: 1) dissolved in 1.0 ml Lactated Ringers (LR) solution pH 7.4. Control rats (n=6) were infused with 1.0 ml Lactated Ringers solution pH 7.4. Prior to hemorrhage MAP and HR were recorded to establish baseline levels. During hemorrhage approximately 48% of the total blood volume was removed at a rate of 3 mL/100 g over a 9- to 11-minute period. After the final mL of blood was removed the various venous catheter treatment injections were administered, MAP and HR were recorded continuously for the duration of survival or up to 6 hours.\nBiomarker protocols: Survival time was determined by the post hemorrhage time after injection until death, or a predetermined 360 minute survival interval. Death was defined as systolic blood pressure without pulsation, and apnea. […] Any animal surviving 360 minutes was sacrificed according to our protocol with urethane (1.0 g/kg, Sigma Aldrich). […] Plasma lactate levels were determined from arterial samples at the beginning of hemorrhage (BOH) and 10 min after end of hemorrhage (EOH) and venous catheter injection utilizing a Vitros® 950 Chemistry Analyzer (Ortho-Clinical Diagnostics, Rochester, N.Y.). Pulse pressure was determined by the difference (mmHg) between the systolic and diastolic pressure during a single cardiac cycle. A total of six measurements for each treatment group were taken after venous catheter injection at a frequency of one every five minutes for first 30 minutes.\nData Analysis: Statistical analysis was preformed using SPSS software with P value <0.05 being considered significant. The survival, MAP, HR and lactic acid values were analyzed using repeated measures analysis of variance (ANOVA) between groups to identify differences between groups. To evaluate differences between means, the ANOVA with post hoc least square differences were used (LSD analysis).\nThe steady state changes in MAP and HR were fitted to a sigmoid logistic equation, plotted, and derivative of the equation were used to obtain the upper and lower plateaus and create curves that reflect instantaneous change as well as the BP50, the MAP halfway between upper and lower plateaus (Flynn F W and Stricker 2003; Head and McCarty 1987, McBride et al., 2005) were employed. […]"}, "Sprague-Dawley rats [2]": {"system": "Sprague-Dawley rats", "assay": "Prehemorrhage Delt-E infusion (24 h before 53% hemorrhage), volume-controlled hemorrhagic shock model", "assay_type": "in vivo, rat"}, "[3]": {"conditions": "5.5 mg/kg post hemorrhage, FIG. 3"}, "[4]": {"conditions": "14.0 mg/kg i.v. post hemorrhage"}, "[5]": {"conditions": "about 5.0 mg/kg i.v. 24 hours before hemorrhage"}}, "note": "“And” between values parts separate entries of the source, which are not always exact repeats. Equal values may be shown once. Part of at least one peptide drawing is inferred or uncertain, most often the ends. Square brackets hold non-standard residues; d marks the D form. Peptide text beside a SMILES is read from it."}
{"smiles": "CC[C@H](C)[C@H](NC(=O)[C@H](CO)NC(=O)[C@H](Cc1ccccc1)NC(=O)[C@H](CC(=O)O)NC(=O)CNC(=O)[C@@H](NC(=O)[C@H](C)NC(=O)[C@H](Cc1ccccc1)NC(=O)[C@@H](C)NC(=O)[C@@H](N)Cc1ccc(O)cc1)[C@@H](C)CC)C(N)=O", "note": "[Delt-E, Tyr-(D-Ala)-Phe-Ala-Ile-Gly-Asp-Phe-Ser-Ile-NH2] (H-Y[dA]FAIGDFSI-NH2)", "values": [{"measurement": "Survival Time in minutes ± S.E.", "setting": "Sprague-Dawley rats [1]; 2.9 mg/kg i.v. immediately after ~48% hemorrhage, observed up to 360 min", "result": "107 ± 1 min and 107 ± 11 min"}, {"measurement": "Maximum HR in BPM ± S.E.", "setting": "Sprague-Dawley rats [1]; 2.9 mg/kg i.v. post hemorrhage", "result": "432 ± 79", "unit": "BPM"}, {"measurement": "Maximum MAP in mmHg ± S.E.", "setting": "Sprague-Dawley rats [1]; 2.9 mg/kg i.v. post hemorrhage", "result": "50±17", "unit": "mmHg"}, {"measurement": "pulse pressure (mmHg systolic-mmHg diastolic)", "setting": "Sprague-Dawley rats [1]; 2.9 mg/kg post hemorrhage", "result": "42±0.37", "unit": "mmHg"}, {"measurement": "Survival Time in minutes ± S.E.", "setting": "Sprague-Dawley rats [1]; 4.2 mg/kg i.v. immediately after ~48% hemorrhage, observed up to 360 min", "result": "232 ± 14", "unit": "min"}, {"measurement": "Maximum HR in BPM ± S.E.", "setting": "Sprague-Dawley rats [1]; 4.2 mg/kg i.v. post hemorrhage", "result": "403 ± 65", "unit": "BPM"}, {"measurement": "Maximum MAP in mmHg ± S.E.", "setting": "Sprague-Dawley rats [1]; 4.2 mg/kg i.v. post hemorrhage", "result": "53±11", "unit": "mmHg"}, {"measurement": "pulse pressure (mmHg systolic-mmHg diastolic)", "setting": "Sprague-Dawley rats [1]; 4.2 mg/kg post hemorrhage", "result": "44±0.4", "unit": "mmHg"}, {"measurement": "Survival Time in minutes ± S.E.", "setting": "Sprague-Dawley rats [1]; 5.5 mg/kg i.v. immediately after ~48% hemorrhage, rats sacrificed at six hours", "result": "331 ± 18 min and 331 min"}, {"measurement": "Maximum HR in BPM ± S.E.", "setting": "Sprague-Dawley rats [1]; 5.5 mg/kg i.v. post hemorrhage", "result": "396±40", "unit": "BPM"}, {"measurement": "Maximum MAP in mmHg ± S.E.", "setting": "Sprague-Dawley rats [1]; 5.5 mg/kg i.v. post hemorrhage", "result": "58±7", "unit": "mmHg"}, {"measurement": "survival versus saline control animals (times longer)", "setting": "Sprague-Dawley rats [1]; 5.5 mg/kg post hemorrhage", "result": "at least six"}, {"measurement": "MAP compared with saline control group during the entire interval examined", "setting": "Sprague-Dawley rats [1]; 5.5 mg/kg post hemorrhage, FIG. 1", "result": "significantly (P<0.01) higher"}, {"measurement": "average BP50", "setting": "Sprague-Dawley rats [1]; [3]", "result": "did not significantly alter"}, {"measurement": "average HR gain", "setting": "Sprague-Dawley rats [1]; [3]", "result": "did not significantly alter"}, {"measurement": "pulse pressure (mmHg systolic-mmHg diastolic)", "setting": "Sprague-Dawley rats [1]; 5.5 mg/kg post hemorrhage", "result": "48±0.56 mmHg and 47.9±0.55 mmHg"}, {"measurement": "mean lactic acid level at the end of hemorrhage", "setting": "Sprague-Dawley rats [1]; 5.5 mg/kg, arterial sample 10 min after end of hemorrhage and injection", "result": "6.54 ± 1.54 mmol/L and 6.5 ± 1.2 mmol/L"}, {"measurement": "increase of mean lactic acid level at the end of hemorrhage", "setting": "Sprague-Dawley rats [1]; 5.5 mg/kg, end versus beginning of hemorrhage", "result": "four"}, {"measurement": "Survival Time in minutes ± S.E.", "setting": "Sprague-Dawley rats [1]; 14.0 mg/kg i.v. immediately after ~48% hemorrhage", "result": "27 ± 7", "unit": "min"}, {"measurement": "Maximum HR in BPM ± S.E.", "setting": "Sprague-Dawley rats [1]; [4]", "result": "394 ± 79", "unit": "BPM"}, {"measurement": "Maximum MAP in mmHg ± S.E.", "setting": "Sprague-Dawley rats [1]; [4]", "result": "51 ± 15", "unit": "mmHg"}, {"measurement": "Heart rate versus control group", "setting": "Sprague-Dawley rats [1]; any Delt-E treated group, post hemorrhage", "result": "no significant difference"}, {"measurement": "baroreflex sensitivity (logistic analysis of MAP-HR gain)", "setting": "Sprague-Dawley rats [1]; post hemorrhage", "result": "did not significantly alter"}, {"measurement": "one-hour survival percentage", "setting": "Sprague-Dawley rats [2]; about 5.0 mg/kg i.v. 24 hours before 53% hemorrhage", "result": 100, "unit": "%"}, {"measurement": "4 hr survival percentage", "setting": "Sprague-Dawley rats [2]; about 5.0 mg/kg i.v. 24 hours before 53% hemorrhage, end of the experiment", "result": 100, "unit": "%"}, {"measurement": "MAP 4 hr following hemorrhage (surviving rats)", "setting": "Sprague-Dawley rats [2]; [5]", "result": "87.8±5.8", "unit": "mmHg"}, {"measurement": "MAP at 30 min posthemorrhage", "setting": "Sprague-Dawley rats [2]; [5]", "result": "94.6±4.7", "unit": "mmgHg"}, {"measurement": "MAP at 60 min posthemorrhage", "setting": "Sprague-Dawley rats [2]; [5]", "result": "87.4±4.5", "unit": "mmHg"}, {"measurement": "MAP at the end of hemorrhage (EOH)", "setting": "Sprague-Dawley rats [2]; [5]", "result": "67.3±3.4", "unit": "mmHg"}, {"measurement": "mean arterial pressure (MAP) at the beginning of hemorrhage (BOH)", "setting": "Sprague-Dawley rats [2]; [5]", "result": "131±4.06", "unit": "mmHg"}, {"measurement": "mean lactic acid level at end of hemorrhage (EOH)", "setting": "Sprague-Dawley rats [2]; [5]", "result": "5.8 ± 0.3", "unit": "mmol/L"}, {"measurement": "mean lactic acid level at the beginning of hemorrhage (BOH)", "setting": "Sprague-Dawley rats [2]; [5]", "result": "1.54 ± 0.2", "unit": "mmol/L"}, {"measurement": "HR versus controls", "setting": "Sprague-Dawley rats [2]; about 5.0 mg/kg i.v. 24 hours before hemorrhage, FIG. 8", "result": "No significant differences"}, {"measurement": "increase of mean lactic acid level at end of hemorrhage", "setting": "Sprague-Dawley rats [2]; about 5.0 mg/kg i.v. 24 hours before hemorrhage, EOH versus BOH", "result": "four"}, {"measurement": "lactic acid level at the beginning of hemorrhage", "setting": "Sprague-Dawley rats [2]; about 5.0 mg/kg i.v. 24 hours before hemorrhage, as restated in the discussion", "result": "1.3 ± 0.1", "unit": "mol/L"}]}
